These are yes or no findings as the source states them, for the method shown. In cells and extracts the contact can be indirect. Some binding calls cover weakened binding; strength is not graded here. For part of these data: Tags and fused reporters may be left off the sequences shown.
Assays:
[1] = molecular target: T1, Palmdelphin (PALMD) (human (endogenous in HCT116 and SW480)) (UniProt Q9NP74); assay: co-IP
T1 sequence: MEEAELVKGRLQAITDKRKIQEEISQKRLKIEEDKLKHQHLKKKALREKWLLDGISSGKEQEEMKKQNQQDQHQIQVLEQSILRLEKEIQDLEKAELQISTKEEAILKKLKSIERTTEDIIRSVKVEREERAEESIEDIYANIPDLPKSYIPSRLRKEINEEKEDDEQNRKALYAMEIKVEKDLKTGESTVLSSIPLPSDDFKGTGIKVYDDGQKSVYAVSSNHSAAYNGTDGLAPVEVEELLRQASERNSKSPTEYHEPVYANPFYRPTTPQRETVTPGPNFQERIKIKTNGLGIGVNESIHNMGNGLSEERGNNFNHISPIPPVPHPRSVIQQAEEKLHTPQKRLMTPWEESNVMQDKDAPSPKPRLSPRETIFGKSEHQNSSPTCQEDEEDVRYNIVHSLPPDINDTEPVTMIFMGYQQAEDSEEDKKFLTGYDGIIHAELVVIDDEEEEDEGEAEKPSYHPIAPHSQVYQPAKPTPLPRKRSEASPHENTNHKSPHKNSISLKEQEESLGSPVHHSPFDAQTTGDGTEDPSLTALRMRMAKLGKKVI

The chains behind the UniProt entries cited, without tags or fusion partners. Residues count along the entry.
UniProt Q6UXX9, residues 22-243: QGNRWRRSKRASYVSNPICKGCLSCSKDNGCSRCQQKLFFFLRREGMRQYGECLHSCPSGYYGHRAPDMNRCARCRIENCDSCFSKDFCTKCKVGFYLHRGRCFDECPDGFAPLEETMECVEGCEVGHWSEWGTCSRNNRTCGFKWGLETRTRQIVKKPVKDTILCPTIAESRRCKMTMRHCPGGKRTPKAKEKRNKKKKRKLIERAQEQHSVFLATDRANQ

[2] = molecular target: T2, PALMD-eGFP fusion protein (oePALMD) (UniProt Q9NP74); assay: co-IP
T2 sequence: T1 sequence

PALMD-GFP2 = molecular target: T3, PALMD-GFP2 (UniProt Q9NP74); assay: FRET or BRET
T3 sequence: T1 sequence

R-spondin2 (RSPO2) (from UniProt Q6UXX9 22-243)
binding [1]: binds | binding [2]: binds

RSPO2-Rluc8 (from UniProt Q6UXX9 22-243)
binding (PALMD-GFP2): binds

From publication doi:10.1101/2025.04.03.646911
